PubChem BioAssay AID652272 | Drosophila RNAi Screening Center | 2013

- Aim: 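Genome-wide knock-down search for components of Hedgehog signalling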 (primary screen)
- Cell system: Drosophila clone 8 (Cl8) cells
- Reagent: long dsRNA against Drosophila genes
- Detection: 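Plate reader light from a firefly reporter under a ptc promoter fragment that responds to Hedgehog, with Renilla light as transfection reference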
- Direction: firefly Hh reporter signal: higher = more ptc reporter light; Renilla reference signal: higher = more Renilla control light
- Active means: 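Hit when the z-score averaged over two replicates is under -2 or over +3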
- Meaning of the calls: active = hit: reporter lowered or raised; inactive = not a hit
The screen tested about 21,000 reagents; shown is an unselected part of those that have a named target and a result. Of all reagents, 503 (2.4%) got an active call. 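Raw plate light values, not normalised; calls rest on replicate z-scores that were not deposited; hits include reporter decreases as well as increases.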 The numbers tell different reagents against one gene apart. Not stated in the record: the amount of reagent, the time to read-out.

| target | reagent | firefly Hh reporter signal, replicate 1 | firefly Hh reporter signal, replicate 2 | firefly Hh reporter signal, replicate 3 | Renilla reference signal, replicate 1 | Renilla reference signal, replicate 2 | outcome |
| --- | --- | --- | --- | --- | --- | --- | --- |
| CG17219 | 1 | 1.01e5 | 76036 | – | 1602 | 5368 | inactive |
| CG16985 | 1 | 91912 | 42072 | – | 2921 | 3286 | inactive |
| Gfrl | 1 | 4.89e5 | 68512 | – | 25730 | 1720 | inactive |
| Gfrl | 2 | 1.48e5 | 1.13e5 | – | 6884 | 5357 | inactive |
| Gfrl | 3 | 7.39e5 | 1.11e5 | – | 38365 | 2637 | inactive |
| Gfrl | 4 | 1.21e5 | 68304 | – | 4849 | 2892 | inactive |
| Gfrl | 5 | 4.87e5 | 70907 | – | 26844 | 1940 | inactive |
| UBL3 | 1 | 88176 | 1.59e5 | – | 2825 | 6570 | inactive |
| CG11927 | 1 | 65984 | 92954 | – | 3146 | 3393 | inactive |
| slp2 | 1 | 1.72e5 | 55101 | – | 4374 | 5852 | inactive |
| Qsox1 | 1 | 1.37e5 | 71888 | – | 3952 | 5229 | inactive |
| CG34297 | 1 | 1.55e5 | – | – | 3968 | – | inactive |
| CG2961 | 1 | 66816 | 1.50e5 | – | 2145 | 5354 | inactive |
| ix | 1 | 63042 | 52529 | – | 1648 | 3573 | inactive |
| Cpr65Aw | 1 | 1.11e5 | 1.86e5 | – | 2875 | 9062 | inactive |
| GstE13 | 1 | 1.09e5 | 45792 | – | 3575 | 1308 | inactive |
| CG17660 | 1 | 1.13e5 | 94791 | – | 4677 | 3920 | inactive |
| CG5902 | 1 | 1.31e5 | 65250 | – | 4765 | 2305 | inactive |
| Rtc1 | 1 | 1.04e5 | 49895 | – | 2134 | 987 | inactive |
| CG12177 | 1 | 1.51e5 | 4.68e5 | 3.83e5 | 4738 | 2840 | inactive |
| sals | 1 | 1.45e5 | 1.08e5 | – | 5312 | 4283 | inactive |
| sals | 2 | 72836 | 1.22e5 | – | 2438 | 3251 | inactive |
| Jon25Bii | 1 | 1.48e5 | 47257 | – | 3754 | 5284 | inactive |
| CG14137 | 1 | 50235 | 70156 | 53525 | 5750 | 3666 | inactive |
| stum | 1 | 1.05e5 | 39755 | – | 2851 | 3462 | inactive |
| stum | 2 | 79266 | 43904 | – | 2272 | 3904 | inactive |
| CG13159 | 1 | 1.41e5 | 1.25e5 | – | 3426 | 7010 | inactive |
| para | 1 | 7.93e5 | 3.18e5 | – | 45952 | 7143 | inactive |
| para | 2 | 92903 | 2.38e5 | – | 2069 | 9588 | inactive |
| CG17734 | 1 | 1.61e5 | 7.10e5 | 1.53e5 | 4949 | 4994 | inactive |
| CG7829 | 1 | 84326 | 1.13e5 | – | 2437 | 4792 | inactive |
| CG12133 | 1 | 1.06e5 | 49997 | – | 2432 | 4525 | inactive |
| Takl2 | 1 | 6.14e5 | 1.05e5 | – | 30163 | 3257 | inactive |
| hebe | 1 | 1.50e5 | 3.13e5 | – | 3632 | 13296 | inactive |
| hebe | 2 | 1.22e5 | 6.61e5 | 1.08e5 | 5463 | 38833 | inactive |
| CG43901 | 1 | 74902 | 1.84e5 | – | 1959 | 6349 | inactive |
| CG43901 | 2 | 71128 | 89985 | – | 2440 | 4800 | inactive |
| CG43901 | 3 | 1.23e5 | 7.56e5 | 3.52e5 | 3507 | 6272 | inactive |
| CG13579 | 1 | 70148 | 69085 | – | 1258 | 5746 | inactive |
| hog | 1 | 4.66e5 | 2.01e5 | – | 25906 | 4922 | inactive |
| RalGPS | 1 | 95329 | 89587 | – | 4226 | 3637 | inactive |
| CG30480 | 1 | 83008 | 44032 | – | 2176 | 3604 | inactive |
| Nxt1 | 1 | 64040 | 35649 | – | 1637 | 3669 | inactive |
| c(2)M | 1 | 1.03e5 | 80157 | – | 3907 | 3201 | inactive |
| CG34256 | 1 | 4.14e5 | – | – | 7093 | – | inactive |
| tay | 1 | 98397 | 61590 | – | 2914 | 1418 | inactive |
| GLaz | 1 | 67436 | 38251 | – | 1602 | 3385 | inactive |
| Ltn1 | 1 | 57575 | 60985 | – | 2109 | 2020 | inactive |
| Ltn1 | 2 | 1.51e5 | 1.39e5 | – | 5312 | 3936 | inactive |
| Kah | 1 | 1.31e5 | 2.46e5 | – | 3697 | 11584 | inactive |
| Kah | 2 | 1.07e5 | 57120 | – | 3251 | 4752 | inactive |
| CG8043 | 1 | 66130 | 94314 | – | 1460 | 2710 | inactive |
| Or30a | 1 | 88502 | 68619 | – | 2442 | 5733 | inactive |
| CR46300 | 1 | 1.80e5 | – | – | 2775 | – | inactive |
| CG42521 | 1 | 18112 | 62902 | 65289 | 5284 | 5798 | inactive |
| CG8531 | 1 | 1.08e5 | 85003 | – | 4269 | 3457 | inactive |
| CG31510 | 1 | 5.78e5 | 82477 | – | 28573 | 2410 | inactive |

Laid out differently: 7 of the entries above.
{"target":"CG43901","reagent":3,"firefly Hh reporter signal, replicate 1":1.23e5,"firefly Hh reporter signal, replicate 2":7.56e5,"firefly Hh reporter signal, replicate 3":3.52e5,"Renilla reference signal, replicate 1":3507,"Renilla reference signal, replicate 2":6272,"outcome":"inactive"}
{"target":"CG13579","reagent":1,"firefly Hh reporter signal, replicate 1":70148,"firefly Hh reporter signal, replicate 2":69085,"Renilla reference signal, replicate 1":1258,"Renilla reference signal, replicate 2":5746,"outcome":"inactive"}
{"target":"hog","reagent":1,"firefly Hh reporter signal, replicate 1":4.66e5,"firefly Hh reporter signal, replicate 2":2.01e5,"Renilla reference signal, replicate 1":25906,"Renilla reference signal, replicate 2":4922,"outcome":"inactive"}
{"target":"RalGPS","reagent":1,"firefly Hh reporter signal, replicate 1":95329,"firefly Hh reporter signal, replicate 2":89587,"Renilla reference signal, replicate 1":4226,"Renilla reference signal, replicate 2":3637,"outcome":"inactive"}
{"target":"CG30480","reagent":1,"firefly Hh reporter signal, replicate 1":83008,"firefly Hh reporter signal, replicate 2":44032,"Renilla reference signal, replicate 1":2176,"Renilla reference signal, replicate 2":3604,"outcome":"inactive"}
{"target":"Nxt1","reagent":1,"firefly Hh reporter signal, replicate 1":64040,"firefly Hh reporter signal, replicate 2":35649,"Renilla reference signal, replicate 1":1637,"Renilla reference signal, replicate 2":3669,"outcome":"inactive"}
{"target":"c(2)M","reagent":1,"firefly Hh reporter signal, replicate 1":1.03e5,"firefly Hh reporter signal, replicate 2":80157,"Renilla reference signal, replicate 1":3907,"Renilla reference signal, replicate 2":3201,"outcome":"inactive"}
